No constants are given. Whether binding was seen depends on the method and setting. Binding can be weak; no strength is given.

For this test, the target named is T1, recombinant Simukunin (rSV-66) (Simulium vittatum) (UniProt B5M0W4).
T1 sequence: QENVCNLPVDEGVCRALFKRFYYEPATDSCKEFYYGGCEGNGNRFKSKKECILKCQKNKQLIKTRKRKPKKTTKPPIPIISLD
The test is described as follows: SPR; rSimukunin immobilised on a CM5 chip by amine coupling (475.3 RU); each analyte injected at 200 nM; running buffer HBS-P (10 mM Hepes pH 7.4, 150 mM NaCl, 0.005% P20); Biacore T100; both purified. On the technique in general: In SPR one partner is held on a chip, and binding of the other changes the refractive index at the surface.
For the substance “activated coagulation factor X (FXa), bovine (enzyme)”, the binding result is listed as “binds”.
With “activated coagulation factor IX (FIXa) (enzyme)”, the binding entry is recorded as “binds weakly”.
Regarding “des-Gla-FXa (human), FXa derivative lacking the Gla domain (domain or fragment)”, the binding entry was “binds”.
Regarding “activated coagulation factor X (FXa), human (enzyme)”, the binding entry is recorded as “binds”.
Take “activated coagulation factor XI (FXIa) (human) (enzyme)”: the binding entry was “binds weakly”.
In the case of “activated coagulation factor X (FXa), mouse (enzyme)”, the binding entry is recorded as “binds”.
